This experiment addresses TerR_(35-138), fragment of the Aspergillus terreus transcription factor TerR with the zinc binuclear cluster DNA-binding domain (Aspergillus terreus) (UniProt Q0D1P5). As to the kind of experiment: SEC-MALS; Superdex 200 10/300 GL column in series with a miniDawn TREOS static light scattering monitor and an Optilab T-rEX refractometer; molar mass calculated with ASTRA 6; both purified.

These are yes or no findings as the source states them, for the method shown.

B1: TerR_(35-138), fragment of the Aspergillus terreus transcription factor TerR with the zinc binuclear cluster DNA-binding domain (domain or fragment, UniProt Q0D1P5 35-138)
chain: SSVRKKKWMSRRRGACDMCKSKKVRCDGGTPCSYCNLHDLRCEYQLSKKQQTNKPPVASAAEDVSIVPSYAENNGSGVTTQVPSPSDVQVLPELTANRGSGNAG
Regarding B1, the binding entry is reported as “no binding”.

The values are drawn from publication PMC4360782, “A new high-performance heterologous fungal expression system based on regulatory elements from the Aspergillus terreus terrein gene cluster”.
